Record: PubChem BioAssay AID743458 (Peter MacCallum Cancer Centre, 2014)
Here is one part, drawn at random, of about 1,800 reagents tested. 732 of them (41%) count as active. 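Calls are per siRNA reagent; a gene was deemed confirmed only if most of its four siRNAs scored.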 Reagents against one gene are numbered here.

Screen: 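Identify genes whose loss lifts vorinostat resistance in colon cancer cells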 (follow-up of hits)
System: human HCT116-VR colon cancer cells made resistant to vorinostat
Knock-down reagent: single siRNA or pool against human genes, 25 nM per single siRNA
Timing: about 72 h after transfection, including 24 h of drug
Treatment: vorinostat, 2.5 µM final, for 24 h
Measured: 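Cell viability by fluorescence and apoptosis by caspase 3/7 luminescence under vorinostat, background-corrected, averaged across two plate copies and given as fold change versus mock transfection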
Reading the numbers: viability relative to mock: higher = more living cells than mock; caspase activity relative to mock: higher = more apoptosis than mock
Active means: 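An siRNA counts as active if classed as reduced viability or as caspase activation, otherwise inactive; a hit class needed wells that remained healthy in the absence of drug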

gene symbol,reagent,viability relative to mock,caspase activity relative to mock,viability hit class,caspase hit class,Outcome
EIF2B2 (GeneID 8892),1,0.66,1.15,no change,no change,inactive
EIF2B2 (GeneID 8892),2,0.58,1.61,no change,no change,inactive
EIF2B2 (GeneID 8892),3,0.29,1.48,reduced viability,no change,active
EIF2B2 (GeneID 8892),4,0.26,2.66,reduced viability,caspase activation,active
SYPL2 (GeneID 284612),1,0.29,4.62,reduced viability,caspase activation,active
SYPL2 (GeneID 284612),2,0.88,1.62,no change,no change,inactive
SYPL2 (GeneID 284612),3,0.82,1.94,no change,no change,inactive
SYPL2 (GeneID 284612),4,0.76,3.23,no change,caspase activation,active
PRPF8 (GeneID 10594),1,0.44,1.62,no change,no change,inactive
PRPF8 (GeneID 10594),2,0.53,1.85,reduced viability,no change,active
PRPF8 (GeneID 10594),3,0.46,2.29,reduced viability,no change,active
PRPF8 (GeneID 10594),4,0.64,2.75,no change,caspase activation,active
LMTK3 (GeneID 114783),1,0.9,1.27,no change,no change,inactive
LMTK3 (GeneID 114783),2,0.78,2.17,no change,no change,inactive
LMTK3 (GeneID 114783),3,0.58,2.19,no change,no change,inactive
LMTK3 (GeneID 114783),4,0.86,2.38,no change,no change,inactive
RECK (GeneID 8434),1,0.84,2.44,no change,no change,inactive
RECK (GeneID 8434),2,0.54,6.41,reduced viability,caspase activation,active
RECK (GeneID 8434),3,0.94,1.64,no change,no change,inactive
RECK (GeneID 8434),4,0.8,1.21,no change,no change,inactive
TRIM24 (GeneID 8805),1,1.02,0.96,no change,no change,inactive
TRIM24 (GeneID 8805),2,0.44,3.43,reduced viability,caspase activation,active
TRIM24 (GeneID 8805),3,1.04,1.16,no change,no change,inactive
TRIM24 (GeneID 8805),4,0.88,1.77,no change,no change,inactive
MAP1S (GeneID 55201),1,0.93,0.78,no change,no change,inactive
MAP1S (GeneID 55201),2,0.92,0.81,no change,no change,inactive
MAP1S (GeneID 55201),3,0.26,1.83,reduced viability,no change,active
MAP1S (GeneID 55201),4,0.86,1.56,no change,no change,inactive
CHRNA7 (GeneID 1139),1,0.52,0.72,reduced viability,no change,active
CHRNA7 (GeneID 1139),2,1,1.34,no change,no change,inactive
CHRNA7 (GeneID 1139),3,0.85,0.84,no change,no change,inactive
CHRNA7 (GeneID 1139),4,1.02,0.94,no change,no change,inactive
CAMK1 (GeneID 8536),1,0.96,0.84,no change,no change,inactive
CAMK1 (GeneID 8536),2,1.17,1.75,no change,no change,inactive
CAMK1 (GeneID 8536),3,0.72,1.82,no change,no change,inactive
CAMK1 (GeneID 8536),4,0.31,3.03,reduced viability,caspase activation,active
AKAP8 (GeneID 10270),1,0.82,5.42,no change,caspase activation,active
AKAP8 (GeneID 10270),2,1.07,1.36,no change,no change,inactive
AKAP8 (GeneID 10270),3,0.67,4.36,no change,caspase activation,active
AKAP8 (GeneID 10270),4,0.72,4.07,no change,caspase activation,active
UEVLD (GeneID 55293),1,0.8,1.94,no change,no change,inactive
UEVLD (GeneID 55293),2,0.78,1.17,no change,no change,inactive
UEVLD (GeneID 55293),3,0.8,0.87,no change,no change,inactive
UEVLD (GeneID 55293),4,0.74,3.08,no change,caspase activation,active
GATA1 (GeneID 2623),1,0.65,4.02,no change,caspase activation,active
GATA1 (GeneID 2623),2,0.68,2.23,no change,no change,inactive
GATA1 (GeneID 2623),3,0.48,4.65,reduced viability,caspase activation,active
GATA1 (GeneID 2623),4,0.71,5.55,no change,caspase activation,active
RRM1 (GeneID 6240),1,0.19,4.53,no change,no change,inactive
RRM1 (GeneID 6240),2,0.62,2.63,no change,caspase activation,active
RRM1 (GeneID 6240),3,0.58,5.13,no change,caspase activation,active
RRM1 (GeneID 6240),4,0.92,0.92,no change,no change,inactive
GABRB2 (GeneID 2561),1,0.43,2.48,reduced viability,no change,active
GABRB2 (GeneID 2561),2,0.79,1.14,no change,no change,inactive
GABRB2 (GeneID 2561),3,0.58,1.38,no change,no change,inactive
GABRB2 (GeneID 2561),4,0.62,1.57,no change,no change,inactive
FERMT2 (GeneID 10979),1,0.43,5.58,reduced viability,caspase activation,active
FERMT2 (GeneID 10979),2,0.9,1.56,no change,no change,inactive
FERMT2 (GeneID 10979),3,0.64,1.2,no change,no change,inactive
FERMT2 (GeneID 10979),4,0.8,0.96,no change,no change,inactive

9 entries from above in another layout:
| gene symbol | reagent | viability relative to mock | caspase activity relative to mock | viability hit class | caspase hit class | Outcome |
| --- | --- | --- | --- | --- | --- | --- |
| UEVLD (GeneID 55293) | 1 | 0.8 | 1.94 | no change | no change | inactive |
| UEVLD (GeneID 55293) | 2 | 0.78 | 1.17 | no change | no change | inactive |
| UEVLD (GeneID 55293) | 3 | 0.8 | 0.87 | no change | no change | inactive |
| UEVLD (GeneID 55293) | 4 | 0.74 | 3.08 | no change | caspase activation | active |
| GATA1 (GeneID 2623) | 1 | 0.65 | 4.02 | no change | caspase activation | active |
| GATA1 (GeneID 2623) | 2 | 0.68 | 2.23 | no change | no change | inactive |
| GATA1 (GeneID 2623) | 3 | 0.48 | 4.65 | reduced viability | caspase activation | active |
| GATA1 (GeneID 2623) | 4 | 0.71 | 5.55 | no change | caspase activation | active |
| RRM1 (GeneID 6240) | 1 | 0.19 | 4.53 | no change | no change | inactive |
